From patent US20040142821A1, “Pesticide composition comprising malononitrile compounds” (priority 2001, published 2004)
Some entries share one result that the patent states for a list of compounds.

System: Nilaparvata lugens
Assay: Pesticidal test against Nilaparvata lugens, test liquid sprayed onto rice plants (Test Example 1)
Assay type: in vivo, Nilaparvata lugens (brown planthopper)
Details: 500 ppm test liquid (Formulation Example 5) sprayed 20 ml/cup onto rice plants; 30 first-instar larvae released; 25° C.

Row | Compound | number of parasitic pests on the 6th day after the treatment
1 | C=CCC(C#N)(C#N)C(C)c1ccc(OC(F)(F)F)cc1 (stereo not shown) [Compound 30, 2-allyl-2-(1-(4-(trifluoromethoxy)phenyl)ethyl)malononitrile] | ≤ 3
2 | C=CCC(C#N)(C#N)C(CCl)c1ccc(OC(F)(F)F)cc1 (stereo not shown) [Compound 31, 2-allyl-2-(1-(4-(trifluoromethoxy)phenyl)-2-chloroethyl)malononitrile] | ≤ 3
3 | C=CCCC(C#N)(C#N)C(C=C)c1ccc(OC(F)(F)F)cc1 (stereo not shown) [Compound 32, 2-(3-butenyl)-2-(1-(4-(trifluoromethoxy)phenyl)-2-propenyl)malononitrile] | ≤ 3
4 | C=CCC(C#N)(C#N)C(C=C)c1ccc(OC(F)(F)F)cc1 (stereo not shown) [Compound 33, 2-allyl-2-(1-(4-(trifluoromethoxy)phenyl)-2-propenyl)malononitrile] | ≤ 3
5 | C#CCC(C#N)(C#N)C(C=C)c1ccc(OC(F)(F)F)cc1 (stereo not shown) [Compound 34, 2-(2-propynyl)-2-(1-(4-(trifluoromethoxy)phenyl)-2-propenyl)malononitrile] | ≤ 3
6 | C=CCCC(C#N)(C#N)Cc1ccc(SC(F)(F)F)cc1 [Compound 42, 2-(3-butenyl)-2-(4-(trifluoromethylthio)benzyl)malononitrile] | ≤ 3
7 | C=CCC(C#N)(C#N)C(C#N)c1ccc(SC(F)(F)F)cc1 (stereo not drawn) [Compound 56, 2-allyl-2-(4-(trifluoromethylthio)-α-cyanobenzyl)malononitrile] | ≤ 3
8 | CC#CCC(C#N)(C#N)Cc1ccc(OC(F)(F)F)cc1 [Compound 59, 2-(2-butynyl)-2-(4-(trifluoromethoxy)benzyl)malononitrile] | ≤ 3
9 | C=CCCC(C#N)(C#N)Cc1ccc(C(F)(F)F)cc1Cl [Compound 60, 2-(3-butenyl)-2-(2-chloro-4-(trifluoromethyl)benzyl)malononitrile] | ≤ 3
10 | C=CCC(C#N)(C#N)Cc1ccc(C(F)(F)F)cc1[N+](=O)[O-] [Compound 63, 2-allyl-2-(2-nitro-4-(trifluoromethyl)benzyl)malononitrile] | ≤ 3
11 | C=CCC(C#N)(C#N)Cc1c(Cl)cc(C(F)(F)F)cc1Cl [Compound 64, 2-allyl-2-(2,6-dichloro-4-(trifluoromethyl)benzyl)malononitrile] | ≤ 3
12 | C=CCCC(C#N)(C#N)Cc1c(Cl)cc(C(F)(F)F)cc1Cl [Compound 65, 2-(3-butenyl)-2-(2,6-dichloro-4-(trifluoromethyl)benzyl)malononitrile] | ≤ 3
13 | C=CCCC(C#N)(C#N)Cc1ccc(C(F)(F)F)cc1[N+](=O)[O-] [Compound 67, 2-(3-butenyl)-2-(2-nitro-4-(trifluoromethyl)benzyl)malononitrile] | ≤ 3
14 | C=CCCCC(C#N)(C#N)Cc1ccc(C(F)(F)F)cc1 [Compound 79, 2-(4-pentenyl)-2-(4-(trifluoromethyl)benzyl)malononitrile] | ≤ 3
15 | CCCCCC(C#N)(C#N)Cc1ccc(OC(F)(F)F)cc1 [Compound 88, 2-pentyl-2-(4-(trifluoromethoxy)benzyl)malononitrile] | ≤ 3
16 | C=CCC(C#N)(C#N)Cc1cccc(OC(F)(F)F)c1 [Compound 89, 2-allyl-2-(3-(trifluoromethoxy)benzyl)malononitrile] | ≤ 3
17 | C=CCCC(C#N)(C#N)Cc1ccc(OCC)cc1 [Compound 98, 2-(3-butenyl)-2-(4-ethoxybenzyl)malononitrile] | ≤ 3
18 | C=CCCC(C#N)(C#N)Cc1ccc(OC(C)C)cc1 [Compound 100, 2-(3-butenyl)-2-(4-isopropoxybenzyl)malononitrile] | ≤ 3
19 | C=CCC(C#N)(C#N)Cc1ccc(C(C)C)cc1 [Compound 102, 2-allyl-2-(4-isopropylbenzyl)malononitrile] | ≤ 3
20 | C=CCC(C#N)(C#N)Cc1cccc(F)c1F [Compound 114, 2-allyl-2-(2,3-difluorobenzyl)malononitrile] | ≤ 3
21 | C=CCC(C#N)(C#N)Cc1ccc(OC(C)CC)cc1 (stereo not shown) [Compound 115, 2-allyl-2-(4-(2-butyloxy)benzyl)malononitrile] | ≤ 3
22 | C=CCC(C#N)(C#N)Cc1ccc(F)c(Oc2ccccc2)c1 [Compound 116, 2-allyl-2-(4-fluoro-3-phenoxybenzyl)malononitrile] | ≤ 3
23 | C=CCC(C#N)(C#N)Cc1ccc(Sc2ccc(C)cc2)cc1 [Compound 117, 2-allyl-2-(4-(p-tolylthio)benzyl)malononitrile] | ≤ 3
24 | C=CCC(C#N)(C#N)Cc1cccc(Oc2ccccc2)c1 [Compound 118, 2-allyl-2-(3-phenoxybenzyl)malononitrile] | ≤ 3
25 | C=CCC(C#N)(C#N)Cc1ccc(Oc2cccc(C)c2)cc1 [Compound 119, 2-allyl-2-(4-(m-tolyloxy)benzyl)malononitrile] | ≤ 3

System: Nilaparvata lugens
Assay: Pesticidal test against Nilaparvata lugens, rice cotyledons immersed in test liquid (Test Example 3)
Assay type: in vivo, Nilaparvata lugens (brown planthoppers)
Details: 500 ppm test liquid (Formulation Example 1), rice cotyledons immersed 1 minute; 30 first-instar larvae released; 25° C.

Row | Compound | number of parasitic pests on the 6th day after the treatment
26 | C=CCC(C#N)(C#N)Cc1ccc(Cl)cc1 [Compound 1, 2-allyl-2-(4-chlorobenzyl)malononitrile] | ≤ 3
27 | C=CCC(C#N)(C#N)C(C)(C)c1ccc(Cl)cc1 [Compound 2, 2-allyl-2-(1-(4-chlorophenyl)-1-methylethyl)malononitrile] | ≤ 3
28 | C=CCC(C#N)(C#N)C(c1ccc(Cl)cc1)C(C)C (stereo not shown) [Compound 3, 2-allyl-2-(1-(4-chlorophenyl)-2-methylpropyl)malononitrile] | ≤ 3
29 | C=CCCC(C#N)(C#N)Cc1ccc(Cl)cc1 [Compound 4, 2-(3-butenyl)-2-(4-chlorobenzyl)malononitrile] | ≤ 3
30 | C=CCC(C#N)(C#N)Cc1ccc(C(F)(F)F)cc1 [Compound 5, 2-allyl-2-(4-(trifluoromethyl)benzyl)malononitrile] | ≤ 3
31 | C=CCCC(C#N)(C#N)Cc1ccc(C#N)cc1 [Compound 6, 2-(3-butenyl)-2-(4-cyanobenzyl)malononitrile] | ≤ 3
32 | C=CCC(C#N)(C#N)Cc1ccccc1Cl [Compound 8, 2-allyl-2-(2-chlorobenzyl)malononitrile] | ≤ 3
33 | N#CC(C#N)(Cc1ccc(Cl)cc1)C1CCCCC1 [Compound 9, 2-(4-chlorobenzyl)-2-cyclohexylmalononitrile] | ≤ 3
34 | C=CCCC(C#N)(C#N)C(C)c1ccc(Cl)cc1 (stereo not shown) [Compound 10, 2-(3-butenyl)-2-(1-(4-chlorophenyl)ethyl)malononitrile] | ≤ 3
35 | C=CCC(C#N)(C#N)Cc1ccc(Br)cc1 [Compound 13, 2-allyl-2-(4-bromobenzyl)malononitrile] | ≤ 3
36 | C=CCC(C#N)(C#N)Cc1ccc(C#N)cc1 [Compound 14, 2-allyl-2-(4-cyanobenzyl)malononitrile] | ≤ 3
37 | C=CCCC(C#N)(C#N)Cc1ccc(OC(F)(F)F)cc1 [Compound 15, 2-(3-butenyl)-2-(4-(trifluoromethoxy)benzyl)malononitrile] | ≤ 3
38 | C=CCC(C#N)(C#N)Cc1cccc(Cl)c1 [Compound 17, 2-allyl-2-(3-chlorobenzyl)malononitrile] | ≤ 3
39 | C=CCC(C#N)(C#N)Cc1ccc(F)cc1 [Compound 18, 2-allyl-2-(4-fluorobenzyl)malononitrile] | ≤ 3
40 | CC(C)CC(C#N)(C#N)Cc1ccc(Cl)cc1 [Compound 19, 2-(4-chlorobenzyl)-2-isobutylmalononitrile] | ≤ 3
41 | C=CCCCC(C#N)(C#N)Cc1ccc(Cl)cc1 [Compound 21, 2-(4-chlorobenzyl)-2-(4-pentenyl)malononitrile] | ≤ 3
42 | C=CC(C)C(C#N)(C#N)Cc1ccc(Cl)cc1 (stereo not shown) [Compound 22, 2-(4-chlorobenzyl)-2-(1-methyl-2-propenyl)malononitrile] | ≤ 3
43 | C=CCC(C#N)(C#N)Cc1ccc(Cl)c(Cl)c1 [Compound 23, 2-allyl-2-(3,4-dichlorobenzyl)malononitrile] | ≤ 3
44 | C=CCC(C#N)(C#N)Cc1ccc(Cl)cc1Cl [Compound 24, 2-allyl-2-(2,4-dichlorobenzyl)malononitrile] | ≤ 3
45 | CC(C)=CCC(C#N)(C#N)Cc1ccc(Cl)cc1 [Compound 25, 2-(4-chlorobenzyl)-2-(3-methyl-2-butenyl)malononitrile] | ≤ 3
46 | C=CCCC(C#N)(C#N)C(c1ccc(Cl)cc1)C(C)C (stereo not shown) [Compound 26, 2-(3-butenyl)-2-(1-(4-chlorophenyl)-2-methylpropyl)malononitrile] | ≤ 3
47 | C=CCC(C#N)(C#N)Cc1ccc(OC)cc1 [Compound 29, 2-allyl-2-(4-methoxybenzyl)malononitrile] | ≤ 3
48 | C=CCC(C#N)(C#N)Cc1ccc(OCC)cc1 [Compound 44, 2-allyl-2-(4-ethoxybenzyl)malononitrile] | ≤ 3
49 | C=CCC(C#N)(C#N)C(C)(C)c1cccc(Cl)c1 [Compound 48, 2-allyl-2-(1-(3-chlorophenyl)-1-methylethyl)malononitrile] | ≤ 3
